Test: Antioxidant activity in sunflower oil, induction time by Rancimat
Details: sunflower oil with 200 mg/kg antioxidant, 120 °C, air flow 20 L/h

| SMILES | induction time (Rancimat) [min] |
| --- | --- |
| CCCCCCCCCCCC(=O)OC1C(=O)c2c(O)cc(O)cc2OC1c1cc(O)c(O)c(O)c1 (stereo not shown) [C12-DHM, 3-O-lauroyl-DHM] | 2.71 |
| CC(=O)OC1C(=O)c2c(O)cc(O)cc2OC1c1cc(O)c(O)c(O)c1 (stereo not shown) [C2-DHM, 3-O-acetyl-DHM] | 4.25 |
| O=C1c2c(O)cc(O)cc2O[C@H](c2cc(O)c(O)c(O)c2)[C@H]1O [DHM, Dihydromyricetin] | 5.27 |
| CCCCCCCC(=O)OC1C(=O)c2c(O)cc(O)cc2OC1c1cc(O)c(O)c(O)c1 (stereo not shown) [C8-DHM, 3-O-octanoyl-DHM] | 4.60 |
| CC(C)(C)c1cc(O)ccc1O [TBHQ, tert-butylhydroquinone, reference compound] | 6.22 |
| CCCC(=O)OC1C(=O)c2c(O)cc(O)cc2OC1c1cc(O)c(O)c(O)c1 (stereo not shown) [C4-DHM, 3-O-butyryl-DHM] | 4.27 |
| CCCCCC(=O)OC1C(=O)c2c(O)cc(O)cc2OC1c1cc(O)c(O)c(O)c1 (stereo not shown) [C6-DHM, 3-O-hexanoyl-DHM] | 4.47 |
